PubChem BioAssay AID1259308 – NCATS | 2017

- Purpose: 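Candidate targets for better recombinant protein yield in mammalian cells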 (primary screen)
- System: human HEK293 embryonic kidney cells stably expressing firefly luciferase (HEK-CMV-Luc2-Hygro)
- Reagents: single siRNA against human genes, 0.8 pmol siRNA per well
- Timing: 72 h
- Measured: 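Luciferase light (ONE-Glo) measured on one replicate plate set and viability (CellTiter-Glo) on the other, scaled to a negative control siRNA, with robust z-scores and luciferase per cell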
- Direction: total luciferase, z-score and total luciferase, % of control: higher = more reporter protein produced; luciferase per cell, z-score: higher = more reporter output per viable cell
- Call rule: 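An siRNA counts as active if its total luciferase robust z-score exceeds 3; genes with two or more such siRNAs out of three were retested with fresh siRNAs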
- Calls: active = raised luciferase; inactive = no rise
Here is an unselected part of about 59,000 reagents tested. About 1,510 of all reagents (2.6%) count as active. 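Calls use total luciferase alone and ignore viability, so some active siRNAs may act by altering cell number.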 The numbers tell different reagents against one gene apart. Further read-outs or replicates are left out here. Reagent sequences are not shown.

no.	Target gene	siRNA no.	total luciferase, z-score	total luciferase, % of control	luciferase per cell, z-score	call
1	FAM74A3 (family with sequence similarity 74 member A3)	1	-0.601	69.9	-1.17	inactive
2	FAM74A3 (family with sequence similarity 74 member A3)	2	-0.891	64.2	0.237	inactive
3	FAM74A3 (family with sequence similarity 74 member A3)	3	-0.222	77.5	0.81	inactive
4	BAHD1 (bromo adjacent homology domain containing 1)	1	1.06	103	0.989	inactive
5	BAHD1 (bromo adjacent homology domain containing 1)	2	1.26	107	0.982	inactive
6	BAHD1 (bromo adjacent homology domain containing 1)	3	-1.97	42.8	-3.48	inactive
7	ANO7 (anoctamin 7)	1	-1.01	61.8	-0.233	inactive
8	ANO7 (anoctamin 7)	2	0.421	90.3	0.161	inactive
9	ANO7 (anoctamin 7)	3	0.78	97.4	1.04	inactive
10	TDRKH (tudor and KH domain containing)	1	2.19	125	0.989	inactive
11	TDRKH (tudor and KH domain containing)	2	-1.43	53.4	-1.31	inactive
12	TDRKH (tudor and KH domain containing)	3	0.645	94.7	0.359	inactive
13	TNP1 (transition protein 1)	1	1.17	105	1.27	inactive
14	TNP1 (transition protein 1)	2	-0.768	66.6	-0.575	inactive
15	TNP1 (transition protein 1)	3	0.803	97.9	0.688	inactive
16	HAGHL (hydroxyacylglutathione hydrolase like)	1	-0.123	79.4	1.1	inactive
17	HAGHL (hydroxyacylglutathione hydrolase like)	2	-0.831	65.4	-0.19	inactive
18	HAGHL (hydroxyacylglutathione hydrolase like)	3	1.63	114	0.276	inactive
19	LEUTX (leucine twenty homeobox)	1	-0.694	68.1	-1.04	inactive
20	LEUTX (leucine twenty homeobox)	2	-0.43	73.3	-0.292	inactive
21	LEUTX (leucine twenty homeobox)	3	1.49	112	0.88	inactive
22	TNFRSF12A (TNF receptor superfamily member 12A)	1	1.03	102	0.916	inactive
23	TNFRSF12A (TNF receptor superfamily member 12A)	2	-0.349	74.9	-0.241	inactive
24	TNFRSF12A (TNF receptor superfamily member 12A)	3	-1.4	54	-0.45	inactive
25	PTRHD1 (peptidyl-tRNA hydrolase domain containing 1)	1	-0.295	76	-0.14	inactive
26	PTRHD1 (peptidyl-tRNA hydrolase domain containing 1)	2	-0.824	65.5	-0.622	inactive
27	PTRHD1 (peptidyl-tRNA hydrolase domain containing 1)	3	-0.564	70.7	-0.395	inactive
28	ACAD9 (acyl-CoA dehydrogenase family member 9)	1	0.226	86.4	0.351	inactive
29	ACAD9 (acyl-CoA dehydrogenase family member 9)	2	-0.104	79.8	-0.0837	inactive
30	ACAD9 (acyl-CoA dehydrogenase family member 9)	3	-2.55	31.1	-3.49	inactive
31	SPO11 (SPO11 initiator of meiotic double strand breaks)	1	-1.87	44.8	-2.01	inactive
32	SPO11 (SPO11 initiator of meiotic double strand breaks)	2	0.0871	83.6	-0.605	inactive
33	SPO11 (SPO11 initiator of meiotic double strand breaks)	3	0.0616	83.1	-0.423	inactive
34	ANKUB1 (ankyrin repeat and ubiquitin domain containing 1)	1	0.505	91.9	0.486	inactive
35	ANKUB1 (ankyrin repeat and ubiquitin domain containing 1)	2	-0.58	70.3	-0.648	inactive
36	ANKUB1 (ankyrin repeat and ubiquitin domain containing 1)	3	0.188	85.6	0.388	inactive
37	TRH (thyrotropin releasing hormone)	1	-0.544	71.1	-0.491	inactive
38	TRH (thyrotropin releasing hormone)	2	-0.0131	81.6	1.09	inactive
39	TRH (thyrotropin releasing hormone)	3	2.75	137	2.06	inactive
40	LAPTM4A (lysosomal protein transmembrane 4 alpha)	1	0.0779	83.4	0.33	inactive
41	LAPTM4A (lysosomal protein transmembrane 4 alpha)	2	-0.0973	80	-0.544	inactive
42	LAPTM4A (lysosomal protein transmembrane 4 alpha)	3	0.102	83.9	-0.745	inactive
43	CHD9 (chromodomain helicase DNA binding protein 9)	1	-0.54	71.1	-0.72	inactive
44	CHD9 (chromodomain helicase DNA binding protein 9)	2	-0.871	64.6	-0.154	inactive
45	CHD9 (chromodomain helicase DNA binding protein 9)	3	0.00672	82	-0.37	inactive
46	TUBA1B (tubulin alpha 1b)	1	-0.749	67	-0.0653	inactive
47	TUBA1B (tubulin alpha 1b)	2	0.849	98.8	1.39	inactive
48	TUBA1B (tubulin alpha 1b)	3	0.762	97	1.2	inactive
49	XKR5 (XK related 5)	1	1.58	113	1.88	inactive
50	XKR5 (XK related 5)	2	-1.55	51.1	-0.403	inactive
51	XKR5 (XK related 5)	3	-0.0445	81	0.197	inactive
52	CHST8 (carbohydrate sulfotransferase 8)	1	-0.303	75.9	-0.32	inactive
53	CHST8 (carbohydrate sulfotransferase 8)	2	0.717	96.2	0.919	inactive
54	CHST8 (carbohydrate sulfotransferase 8)	3	-0.657	68.8	-0.648	inactive
55	HNRNPA2B1 (heterogeneous nuclear ribonucleoprotein A2/B1)	1	0.863	99.1	0.777	inactive
56	HNRNPA2B1 (heterogeneous nuclear ribonucleoprotein A2/B1)	2	0.655	94.9	1.11	inactive
57	HNRNPA2B1 (heterogeneous nuclear ribonucleoprotein A2/B1)	3	0.124	84.3	0.495	inactive

Copied from the list:
Value of FAM74A3 (family with sequence similarity 74 member A3) #3 in “total luciferase, % of control”: 77.5
TDRKH (tudor and KH domain containing) #1, total luciferase, z-score = 2.19
Under “total luciferase, % of control”, XKR5 (XK related 5) #1 shows 113
Result for XKR5 (XK related 5) #2 in “total luciferase, z-score”: -1.55
For “call”, ANO7 (anoctamin 7) #3 is entered as inactive
